Results: patent US7732437B2, “Use of anti-histaminics for acute reduction of elevated intracranial pressure” (Janssen Pharmaceutica, NV., priority 2001, dated 2010)
At least one compound was matched to its structure with a doubt left.

System: Sprague-Dawley rats with closed head injury
Test: Closed Head Injury (CHI) model, severe head injury
Conditions: 2 mg/kg/min for 6 min, 6 rats

CNC(=C[N+](=O)[O-])NCCSCc1ccc(CN(C)C)o1 [Ranitidine, ranitidine, reference compound]
reduction in ICP (% change from onset of treatment to end of infusion): 7.7%
